The supplement of paper PMC8728848
The other results are listed elsewhere or left out.

Key:
Assay in all cases: glycan array binding signal (z-score within array); higher = stronger binding
Conditions in all cases: glycan notation: IUPAC condensed, linker removed
[1] = target: Neu5Ac(a2-6)Gal(b1-4)GlcNAc(b1-3)GalNAc
How it was run: (§1)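 The Consortium for Functional Glycomics database supplied 3228 glycan arrays, of which those lacking an available protein sequence were dropped. The binding signal, a within-array Z-score, was averaged across arrays of the same protein sequence and across linkers. Negative scores can be read as non-binding.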

[2] = target: Neu5Ac(a2-6)Gal(b1-4)GlcNAc6S
How it was run: as §1

Neu5Ac(a2-6)GalNAc = target: Neu5Ac(a2-6)GalNAc
How it was run: as §1

[3] = target: Neu5Ac(a2-6)GalNAc(b1-4)GlcNAc
How it was run: as §1

[4] = target: Neu5Ac(a2-6)GlcNAc(b1-4)GlcNAc
How it was run: as §1

[5] = target: Neu5Ac(a2-6)GlcNAc(b1-4)GlcNAc(b1-4)GlcNAc
How it was run: as §1

Neu5Ac(a2-8)Neu5Ac = target: Neu5Ac(a2-8)Neu5Ac
How it was run: as §1

[6] = target: Neu5Ac(a2-8)Neu5Ac(a2-3)Gal(b1-4)Glc
How it was run: as §1

[7] = target: Neu5Ac(a2-8)Neu5Ac(a2-3)[Gal(b1-3)GalNAc(b1-4)]Gal(b1-4)Glc
How it was run: as §1

[8] = target: Neu5Ac(a2-8)Neu5Ac(a2-3)[GalNAc(b1-4)]Gal(b1-4)Glc
How it was run: as §1

[9] = target: Neu5Ac(a2-8)Neu5Ac(a2-8)Neu5Ac
How it was run: as §1

[10] = target: Neu5Ac(a2-8)Neu5Ac(a2-8)Neu5Ac(a2-3)Gal(b1-4)Glc
How it was run: as §1

[11] = target: Neu5Ac(a2-8)Neu5Ac(a2-8)Neu5Ac(a2-3)[GalNAc(b1-4)]Gal(b1-4)Glc
How it was run: as §1

[12] = target: Neu5Ac(a2-8)Neu5Ac(a2-8)Neu5Ac(a2-8)Neu5Ac(a2-3)[GalNAc(b1-4)]Gal(b1-4)Glc
How it was run: as §1

[13] = target: Neu5Ac(b2-6)Gal(b1-4)GlcNAc
How it was run: as §1

Neu5Ac(b2-6)GalNAc = target: Neu5Ac(b2-6)GalNAc
How it was run: as §1

[14] = target: Neu5Ac9Ac(a2-3)Gal(b1-3)GlcNAc
How it was run: as §1

[15] = target: Neu5Ac9Ac(a2-3)Gal(b1-4)GlcNAc
How it was run: as §1

[16] = target: Neu5Ac9Ac(a2-6)Gal(b1-4)GlcNAc
How it was run: as §1

[17] = target: Neu5Gc(a2-3)Gal(b1-3)GlcNAc
How it was run: as §1

[18] = target: Neu5Gc(a2-3)Gal(b1-3)[Fuc(a1-4)]GlcNAc
How it was run: as §1

Neu5Gc(a2-3)Gal(b1-4)Glc = target: Neu5Gc(a2-3)Gal(b1-4)Glc
How it was run: as §1

[19] = target: Neu5Gc(a2-3)Gal(b1-4)GlcNAc
How it was run: as §1

[20] = target: Neu5Gc(a2-3)Gal(b1-4)[Fuc(a1-3)]GlcNAc
How it was run: as §1

[21] = target: Neu5Gc(a2-6)Gal(b1-4)GlcNAc
How it was run: as §1

Neu5Gc(a2-6)GalNAc = target: Neu5Gc(a2-6)GalNAc
How it was run: as §1

[22] = target: Neu5Gc(b2-6)Gal(b1-4)GlcNAc
How it was run: as §1

B1: pullulanase (Streptococcus pyogenes), Q8KLP1 (protein)
chain: MKKKVNQGSKRYQYLLKKWGIGFVIAATGTVMLGCIPSILTHQVAAKTIVGLARDEAQQGDGNAKSGDGFQSSSKEAKPVLDSSSANPASIAEHHLRMHFKTLPAGESLGSLGLWVWGDVDQPSKDWPNGAITMTKAKKDDYGYYLDVPLAAKHRQQVSYLINNKAGENLSKDQHIPLLTPKMNEVWIDENYHAHAYRPLKKGYLRINYHNQSGHYDNLAVWTFKDVKTPTTDWPNGLDLSHKGPYGAYVDVPLKEGANEIGFLILDKSKTGDAIKVQPKDYLFKELDNHTQVFVKDTDPKVYNNPYYIDQVSLKGAEQTTPNEIKAIFTTLDGLDEDAVKQNIKITDKAGKTVAIDELTLDKDKSVMTLKGDFKAQGAVYTVTFGEVSQVARQSWQLKDKLYAYDGELGATLAKDGSVDLALWSPSADSVKVVVYDKQDQTKVVGQADLTKSDKGVWRAHLTSDSVKGISDYTGYYYLYEITRGQEKVMVLDPYAKSLAAWNDATATDDIKTAKAAFIDPSKLGPTGLDFAKINNFKKREDAIIYEAHVRDFTSDKALEGKLTHPFGTFSAFVEQLDYLKDLGVTHVQLLPVLSYFYANELDKTRSTAYTSSDNNYNWGYDPQHYFALSGMYSANPNDPALRIAELKNLVNEIHKRGMGVIFDVVYNHTARTYLFEDLEPNYYHFMNADGTARESFGGGRLGTTHAMSRRILVDSITYLTREFKVDGFRFDMMGDHDAAAIEQAFKAAKAINPNTIMIGEGWRTYQGDEGKKEIAADQDWMKATNTVGVFSDDIRNTLKSGFPNEGTAAFITGGAKNLEGLFKTIKAQPSNFEADAPGDVVQYIAAHDNLTLHDVIAKSINKDPKVAEEEIHKRIRLGNTMILTAQGTAFIHSGQEYGRTKQLLNPDYKTKVSDDKVPNKATLIDAVAQYPYFIHDSYDSSDAVNHFDWAKATDSIAHPISNQTKAYTQGLIALRRSTDAFTKATKAEVDRDVTLITQAGQDGIQQEDLIMGYQTVASNGDRYAVFVNADNKTRKVVLPQAYRYLLGAQVLADAEQVGVTAIAKPKGVQFTKEGLTIDGLTALVLKVSSKTANPSQQKSQTDNHQTKTPDGSKDLDKSLMTRPKRAKTNQKLPKTGEAPSKGLLAAGVALLLLAISLLMKRQKD
glycan array binding signal (z-score) [1]: -0.473
glycan array binding signal (z-score) [2]: -1.16
glycan array binding signal (z-score) (Neu5Ac(a2-6)GalNAc): -1.58
glycan array binding signal (z-score) [3]: 0.245
glycan array binding signal (z-score) [4]: -0.594
glycan array binding signal (z-score) [5]: 0.142
glycan array binding signal (z-score) (Neu5Ac(a2-8)Neu5Ac): -0.894
glycan array binding signal (z-score) [6]: 0.291
glycan array binding signal (z-score) [7]: -1.06
glycan array binding signal (z-score) [8]: -0.945
glycan array binding signal (z-score) [9]: -0.738
glycan array binding signal (z-score) [10]: -0.462
glycan array binding signal (z-score) [11]: -0.523
glycan array binding signal (z-score) [12]: 0.92
glycan array binding signal (z-score) [13]: -0.587
glycan array binding signal (z-score) (Neu5Ac(b2-6)GalNAc): 1.95
glycan array binding signal (z-score) [14]: -0.089
glycan array binding signal (z-score) [15]: -0.987
glycan array binding signal (z-score) [16]: -0.117
glycan array binding signal (z-score) [17]: 1.28
glycan array binding signal (z-score) [18]: -1.31
glycan array binding signal (z-score) (Neu5Gc(a2-3)Gal(b1-4)Glc): -0.236
glycan array binding signal (z-score) [19]: -1.28
glycan array binding signal (z-score) [20]: 0.149
glycan array binding signal (z-score) [21]: 0.21
glycan array binding signal (z-score) (Neu5Gc(a2-6)GalNAc): 0.492
glycan array binding signal (z-score) [22]: -0.183
